According to patent publication US11046659B2, “1,2,3-triazole derivative and insecticide and acaricide containing said derivative as active ingredient” (HOKKO CHEMICAL INDUSTRY CO., LTD., priority 2015, dated 2021):
Some results were stated once for a whole list of compounds, not compound by compound. At least one compound was matched to its structure with a doubt left.

Test system: Spodoptera litura
Assay: Spodoptera litura control test
Format: in vivo
Settings: diluted emulsifiable concentrate 500 ppm sprayed on cabbage seedlings; second instar larvae; four days after the release; 25° C.

Row | Structure (SMILES) | mortality rate [%]
1 | CC[S+]([O-])c1ccccc1-n1cc(-c2cccc(C(F)(F)F)c2)nn1 (racemic) [1-305] | ≥ 80
2 | CC[S+]([O-])c1ccccc1-n1nnc(-c2cccc(C(F)(F)F)c2)c1I (racemic) [1-310] | ≥ 80
3 | CC[S+]([O-])c1ccccc1-n1cc(-c2ccc(C(F)(F)F)cc2)nn1 (racemic) [1-319] | ≥ 80
4 | CC[S+]([O-])c1ccccc1-n1cc(-c2ccc(C(F)(F)F)cc2Cl)nn1 (racemic) [1-336] | ≥ 80
5 | CC[S+]([O-])c1ccccc1-n1nnc(-c2cc(C(F)(F)F)cc(C(F)(F)F)c2)c1I (racemic) [1-360] | ≥ 80
6 | CC[S+]([O-])c1ccccc1-n1nnc(-c2cc(C(F)(F)F)cc(C(F)(F)F)c2)c1N (racemic) [1-361] | ≥ 80
7 | CC[S+]([O-])c1ccccc1-n1nnc(-c2cc(C(F)(F)F)cc(C(F)(F)F)c2)c1C#N (racemic) [1-363] | ≥ 80
8 | CC[S+]([O-])c1c(Cl)cccc1-n1cc(-c2cc(C(F)(F)F)cc(C(F)(F)F)c2)nn1 (racemic) [1-364] | ≥ 80
9 | CC[S+]([O-])c1cc(Cl)ccc1-n1cc(-c2cc(C(F)(F)F)cc(C(F)(F)F)c2)nn1 (racemic) [1-365] | ≥ 80
10 | CC[S+]([O-])c1ccc(Cl)cc1-n1cc(-c2cc(C(F)(F)F)cc(C(F)(F)F)c2)nn1 (racemic) [1-366] | ≥ 80
11 | CC[S+]([O-])c1cccc(Cl)c1-n1cc(-c2cc(C(F)(F)F)cc(C(F)(F)F)c2)nn1 (racemic) [1-367] | ≥ 80
12 | CC[S+]([O-])c1cc(C(F)(F)F)ccc1-n1cc(-c2cc(C(F)(F)F)cc(C(F)(F)F)c2)nn1 (racemic) [1-369] | ≥ 80
13 | CC[S+]([O-])c1ccc(C(F)(F)F)cc1-n1cc(-c2cc(C(F)(F)F)cc(C(F)(F)F)c2)nn1 (racemic) [1-370] | ≥ 80
14 | CC[S+]([O-])c1ccccc1-n1cc(-c2cc(Br)cc(C(F)(F)F)c2)nn1 (racemic) [1-475] | ≥ 80
15 | CC[S+]([O-])c1ccc(F)cc1-n1cc(-c2cc(C(F)(F)F)cc(C(F)(F)F)c2)nn1 (racemic) [1-507] | ≥ 80
16 | CC[S+]([O-])c1ccccc1-n1cc(-c2cccc(S(F)(F)(F)(F)F)c2)nn1 (racemic) [1-513] | ≥ 80
17 | CC[S+]([O-])c1ccccc1-n1cc(-c2cc(C(C)(F)F)cc(C(F)(F)F)c2)nn1 (racemic) [1-520] | ≥ 80
18 | CC[S+]([O-])c1cc(Br)ccc1-n1cc(-c2cc(C(F)(F)F)cc(C(F)(F)F)c2)nn1 (racemic) [1-528] | ≥ 80
19 | CC[S+]([O-])c1ccccc1-n1cc(-c2cc(C(F)(F)F)cc(C3(C#N)CC3)c2)nn1 (racemic) [1-536] | ≥ 80
20 | CC[S+]([O-])c1ccccc1-n1cc(-c2cc(C(F)(F)F)ccc2F)nn1 (racemic) [1-552] | ≥ 80
21 | CC[S+]([O-])c1cc(I)ccc1-n1cc(-c2cc(C(F)(F)F)cc(C(F)(F)F)c2)nn1 (racemic) [1-554] | ≥ 80
22 | CC[S+]([O-])c1cc(OC(F)(F)F)ccc1-n1cc(-c2cc(C(F)(F)F)cc(C(F)(F)F)c2)nn1 (racemic) [1-555] | ≥ 80
23 | CC[S+]([O-])c1ccccc1-n1nnc(-c2cc(C(F)(F)F)cc(C(F)(F)F)c2)c1C(=O)N(C)C (racemic) [1-562] | ≥ 80
24 | CC[S+]([O-])c1ccccc1-n1cc(-c2cccnc2)nn1 (racemic) [3-29] | ≥ 80

Row | Structure (SMILES) | mortality rate [%]
25 | CC[S+]([O-])c1ccccc1-n1cc(-c2cncc(C(F)(F)F)c2)nn1 (racemic) [3-30] | ≥ 80
26 | CCSc1ccccc1-n1cc(-c2cc(C(F)(F)F)cc(C(F)(F)F)c2)nn1 [1-75, 4-[3,5-bis(trifluoromethyl)phenyl]-1-(2-ethylsulfanylphenyl)triazole] | ≥ 80
27 | CCSc1ccccc1-n1nnc(-c2cc(C(F)(F)F)cc(C(F)(F)F)c2)c1I [1-81] | ≥ 80
28 | CCSc1ccccc1-n1nnc(-c2cc(C(F)(F)F)cc(C(F)(F)F)c2)c1N [1-82, 5-[3,5-bis(trifluoromethyl)phenyl]-3-(2-ethylsulfanylphenyl)triazole-4-amine] | ≥ 80
29 | CCSc1c(Cl)cccc1-n1cc(-c2cc(C(F)(F)F)cc(C(F)(F)F)c2)nn1 [1-85] | ≥ 80
30 | CCSc1cc(Cl)ccc1-n1cc(-c2cc(C(F)(F)F)cc(C(F)(F)F)c2)nn1 [1-86] | ≥ 80
31 | CCSc1ccc(Cl)cc1-n1cc(-c2cc(C(F)(F)F)cc(C(F)(F)F)c2)nn1 [1-87] | ≥ 80
32 | CCSc1cccc(Cl)c1-n1cc(-c2cc(C(F)(F)F)cc(C(F)(F)F)c2)nn1 [1-88] | ≥ 80
33 | CCSc1ccc(C(F)(F)F)cc1-n1cc(-c2cc(C(F)(F)F)cc(C(F)(F)F)c2)nn1 [1-91] | ≥ 80
34 | CCSc1ccccc1-n1cc(-c2cc(Br)cc(C(F)(F)F)c2)nn1 [1-197] | ≥ 80
35 | CCSc1ccc(F)cc1-n1cc(-c2cc(C(F)(F)F)cc(C(F)(F)F)c2)nn1 [1-229] | ≥ 80
36 | CCSc1ccccc1-n1cc(-c2cccc(S(F)(F)(F)(F)F)c2)nn1 [1-236] | ≥ 80
37 | CCSc1ccccc1-n1cc(-c2cc(C(C)(F)F)cc(C(F)(F)F)c2)nn1 [1-243] | ≥ 80
38 | CCSc1cc(Br)ccc1-n1cc(-c2cc(C(F)(F)F)cc(C(F)(F)F)c2)nn1 [1-251] | ≥ 80
39 | CCSc1cc(C2CC2)ccc1-n1cc(-c2cc(C(F)(F)F)cc(C(F)(F)F)c2)nn1 [1-255] | ≥ 80
40 | CCSc1cc(OC(F)(F)F)ccc1-n1cc(-c2cc(C(F)(F)F)cc(C(F)(F)F)c2)nn1 [1-278] | ≥ 80
41 | CC[S+]([O-])c1ccccc1-n1cc(-c2cc(C(F)(F)F)cc(C(F)(F)F)c2)nn1 (centres unmarked) [1-354, 4-[3,5-bis(trifluoromethyl)phenyl]-1-(2-ethylsulfinylphenyl)triazole] | ≥ 80
42 | CCS(=O)(=O)c1ccccc1-n1nnc(-c2cccc(C(F)(F)F)c2)c1I [1-587] | ≥ 80
43 | CCS(=O)(=O)c1ccccc1-n1cc(-c2ccc(C(F)(F)F)cc2)nn1 [1-596] | ≥ 80
44 | CCS(=O)(=O)c1ccccc1-n1cc(-c2cc(C(F)(F)F)cc(C(F)(F)F)c2)nn1 [1-631, 4-[3,5-bis(trifluoromethyl)phenyl]-1-(2-ethylsulfonylphenyl)triazole] | ≥ 80
45 | CCS(=O)(=O)c1ccccc1-n1nnc(-c2cc(C(F)(F)F)cc(C(F)(F)F)c2)c1I [1-637] | ≥ 80
46 | CCS(=O)(=O)c1ccccc1-n1nnc(-c2cc(C(F)(F)F)cc(C(F)(F)F)c2)c1N [1-638] | ≥ 80
47 | CCOC(=O)c1c(-c2cc(C(F)(F)F)cc(C(F)(F)F)c2)nnn1-c1ccccc1S(=O)(=O)CC [1-639] | ≥ 80
48 | CCS(=O)(=O)c1ccccc1-n1nnc(-c2cc(C(F)(F)F)cc(C(F)(F)F)c2)c1C#N [1-640] | ≥ 80

Row | Structure (SMILES) | mortality rate [%]
49 | CCS(=O)(=O)c1c(Cl)cccc1-n1cc(-c2cc(C(F)(F)F)cc(C(F)(F)F)c2)nn1 [1-641] | ≥ 80
50 | CCS(=O)(=O)c1cc(Cl)ccc1-n1cc(-c2cc(C(F)(F)F)cc(C(F)(F)F)c2)nn1 [1-642] | ≥ 80
51 | CCS(=O)(=O)c1ccc(Cl)cc1-n1cc(-c2cc(C(F)(F)F)cc(C(F)(F)F)c2)nn1 [1-643] | ≥ 80
52 | CCS(=O)(=O)c1cccc(Cl)c1-n1cc(-c2cc(C(F)(F)F)cc(C(F)(F)F)c2)nn1 [1-644] | ≥ 80
53 | CCS(=O)(=O)c1cc(C(F)(F)F)ccc1-n1cc(-c2cc(C(F)(F)F)cc(C(F)(F)F)c2)nn1 [1-646] | ≥ 80
54 | CCS(=O)(=O)c1ccc(C(F)(F)F)cc1-n1cc(-c2cc(C(F)(F)F)cc(C(F)(F)F)c2)nn1 [1-647] | ≥ 80
55 | CCS(=O)(=O)c1ccccc1-n1cc(-c2cc(Br)cc(C(F)(F)F)c2)nn1 [1-752] | ≥ 80
56 | CCS(=O)(=O)c1ccc(F)cc1-n1cc(-c2cc(C(F)(F)F)cc(C(F)(F)F)c2)nn1 [1-784] | ≥ 80
57 | CCS(=O)(=O)c1ccc(OC)cc1-n1cc(-c2cc(C(F)(F)F)cc(C(F)(F)F)c2)nn1 [1-786] | ≥ 80
58 | CCS(=O)(=O)c1ccccc1-n1nnc(-c2cc(C(F)(F)F)cc(C(F)(F)F)c2)c1F [1-790] | ≥ 80
59 | CCS(=O)(=O)c1ccccc1-n1cc(-c2cccc(S(F)(F)(F)(F)F)c2)nn1 [1-791] | ≥ 80
60 | CCS(=O)(=O)c1ccccc1-n1cc(-c2cc(C(C)(F)F)cc(C(F)(F)F)c2)nn1 [1-798] | ≥ 80
61 | CCS(=O)(=O)c1cc(-c2ccccc2)ccc1-n1cc(-c2cc(C(F)(F)F)cc(C(F)(F)F)c2)nn1 [1-802] | ≥ 80
62 | CCS(=O)(=O)c1cc(C#N)ccc1-n1cc(-c2cc(C(F)(F)F)cc(C(F)(F)F)c2)nn1 [1-805] | ≥ 80
63 | CCS(=O)(=O)c1cc(Br)ccc1-n1cc(-c2cc(C(F)(F)F)cc(C(F)(F)F)c2)nn1 [1-806] | ≥ 80
64 | CCS(=O)(=O)c1cc(C2CC2)ccc1-n1cc(-c2cc(C(F)(F)F)cc(C(F)(F)F)c2)nn1 [1-810] | ≥ 80
65 | CCS(=O)(=O)c1cc(-c2noc(C)n2)ccc1-n1cc(-c2cc(C(F)(F)F)cc(C(F)(F)F)c2)nn1 [1-815] | ≥ 80
66 | CCOC(=O)c1ccc(-n2cc(-c3cc(C(F)(F)F)cc(C(F)(F)F)c3)nn2)c(S(=O)(=O)CC)c1 [1-820] | ≥ 80
67 | CCS(=O)(=O)c1cc(C2(C#N)CC2)ccc1-n1cc(-c2cc(C(F)(F)F)cc(C(F)(F)F)c2)nn1 [1-823] | ≥ 80
68 | CCS(=O)(=O)c1ccccc1-n1cc(-c2cc(C(F)(F)F)ccc2F)nn1 [1-830] | ≥ 80
69 | CCS(=O)(=O)c1cc(-c2ncn(C)n2)ccc1-n1cc(-c2cc(C(F)(F)F)cc(C(F)(F)F)c2)nn1 [1-831] | ≥ 80
70 | CCS(=O)(=O)c1cc(I)ccc1-n1cc(-c2cc(C(F)(F)F)cc(C(F)(F)F)c2)nn1 [1-832] | ≥ 80
71 | CCS(=O)(=O)c1cc(OC(F)(F)F)ccc1-n1cc(-c2cc(C(F)(F)F)cc(C(F)(F)F)c2)nn1 [1-833] | ≥ 80
